# Some of the results follow. Shown are side measurements of this screen, not its main read-out; they come without a call. The list favours compounds with an active or inconclusive main result. The note in brackets gives the kind of curve behind each potency; many fits are weak.
# Experiment: qHTS Assay for Lipid Storage Modulators in Drosophila S3 Cells;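 as to cell number change: cells counted by Cell Tracker Red CMTPX staining in the red channel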
# Conditions: BODIPY lipid droplet fluorescence, 18-24 h; for cell number change: measured here: cell count max response, cells fed with added oleic acid
# Procedure, shortened: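 Drosophila S3 cells loaded with oleic acid (400 uM, as added) and compounds at several concentrations; lipid droplets imaged by 488-nm laser-scanning cytometry, 500–530 nm intensity and object ratio to cell channel. Percent activity normalized to 20 uM Triacsin C.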
# [1] = measured here: lipid fluorescence (Fed channel) AC50, cells fed with added oleic acid
# [2] = measured here: cell number channel AC50, cells fed with added oleic acid
SMILES,cell number change,AC50 [1],AC50 [2]
Cc1c(C(=O)N2CCN(c3ccccn3)CC2)oc2c(F)cccc12,-9.46%,"0.731 µM [falling, single point]",
COc1cc(C(=O)OCC(=O)N2CC(C)OC(C)C2)cc(OC)c1OC (stereo not given),9.46%,"29.1 µM [falling, single point]",
Cc1cc(F)ccc1NCc1ccncc1,-20.2%,,
COc1cc(SC)ccc1C(=O)Nc1cccc(S(=O)(=O)NC2=NCCC2)c1,-5.5%,"29.1 µM [falling, single point]",
Cc1ccc(NC(=O)CCC(=O)N/N=C/c2cccnc2)cc1,16.7%,"29.1 µM [rising, single point]",
Cc1cc(NC(=O)Cn2nc(-c3cccs3)ccc2=O)cc(C)c1Br,22.2%,"3.26 µM [falling, full curve]",
Cc1ccccc1OCC(=O)OCC(=O)c1ccc(-c2ccccc2)cc1,3.3%,"1.16 µM [falling, single point]","0.651 µM [falling, single point]"
O=C(NCCOCCOCCNC(=O)c1ccccc1)c1ccccc1,-9.97%,"0.184 µM [falling, full curve, poor fit]",
CC1=C(C(=O)OCc2ccccc2)C(c2ccccc2Cl)NC(=O)N1CCCC(=O)O (stereo not given),19.5%,"0.092 µM [falling, full curve, poor fit]",
CCC(Oc1ccccc1)C(=O)NCCCN1CCOCC1 (stereo not given),10.4%,,
C/C(=N\Nc1ccc(C(=O)O)cc1)c1ccc(-n2ccnc2)cc1,25.4%,,
CC(NC(=O)c1ccccc1)C(=O)OCC(=O)c1c(N)n(C)c(=O)n(C)c1=O (stereo not given),27.8%,"0.0731 µM [falling, full curve, poor fit]",
CC(C)NC(=O)c1cc2cc(Br)ccc2oc1=O,78.1%,,"29.1 µM [rising, single point]"
CCOc1cccc(/C=C/c2ccc3ccccc3n2)c1OC(C)=O,-24.8%,"0.651 µM [falling, single point]","0.461 µM [falling, full curve, poor fit]"
CCOC(=O)c1ccc(NC(=S)NCCC2=CCCCC2)cc1,-28.3%,,
CCOC(=O)NC(NS(=O)(=O)c1ccccc1)(C(=O)OCC)C(F)(F)F (stereo not given),-10.9%,"0.0651 µM [falling, full curve, poor fit]",
CCCNC(=S)Nc1cc2oc3ccccc3c2cc1OC,-7.65%,,
COc1ccc(Cc2nnc(SCC(=O)c3ccc(OC)cc3)o2)cc1,,"3.26 µM [falling, single point]",
COCCN(CCOc1cc(C)cc(C)c1)Cc1ccc(Cl)cc1,-36.3%,"29.1 µM [falling, single point]","29.1 µM [falling, single point]"
CCCCN(c1ccccc1)S(=O)(=O)N(C)C,-15.7%,"0.461 µM [falling, partial curve, poor fit]",

# In another format: two of the compounds above
SMILES	cell number change	AC50 [1]	AC50 [2]
COc1ccc(Cc2nnc(SCC(=O)c3ccc(OC)cc3)o2)cc1		3.26 µM [falling, single point]	
COCCN(CCOc1cc(C)cc(C)c1)Cc1ccc(Cl)cc1	-36.3%	29.1 µM [falling, single point]	29.1 µM [falling, single point]

# (cont.)

SMILES,cell number change,AC50 [1],AC50 [2]
COc1cccc(C(=O)Nc2ccccc2NC(=O)c2cccc(OC)c2)c1,-12.3%,,
O=C(OCC(=O)N1CCCCCC1)c1cccc(Cl)c1,20.9%,"29.1 µM [rising, single point]",
COc1c2occc2c(OC(C)=O)c2c(=O)cc(C)oc12,25%,,
CCOc1cc(N2CCOCC2)c(OCC)cc1NC(=O)CC12CC3CC(CC(C3)C1)C2,-1.14%,"6.51 µM [rising, single point]",
O=C(CSc1ccc([N+](=O)[O-])cn1)Nc1nccs1,,"16.4 µM [falling, partial curve]",
Cc1cc(N2C(=O)C=CC2=O)c([N+](=O)[O-])cc1C,-82.6%,"23.1 µM [falling, partial curve]","23.1 µM [falling, partial curve, poor fit]"
CN(C)C(=O)C(Sc1ccc(S(=O)(=O)N2CCCC2)cn1)c1ccccc1 (stereo not given),,"2.31 µM [falling, full curve]",
Cn1c(=O)n(C)c2cc(NC(=O)CSc3ccccc3)ccc21,-19.9%,"32.6 µM [falling, single point]",
CNC(=O)COc1coc(CN2CCN(C(=O)c3ccco3)CC2)cc1=O,-0.396%,"0.00517 µM [falling, full curve, poor fit]","0.0058 µM [falling, full curve, poor fit]"
CCCC1CCc2c(c3ccccc3[nH]c2=O)O1 (stereo not given),37.1%,,"1.46 µM [rising, partial curve, poor fit]"
CCOc1ccccc1N(C(=O)c1ccco1)C(C(=O)NC1CCCC1)c1cccnc1 (stereo not given),144%,"2.06 µM [rising, partial curve]","8.2 µM [rising, partial curve]"
Cc1ccc(N2CC(C(=O)NC3CCSC3=O)CC2=O)cc1 (stereo not given),9.63%,"29.1 µM [falling, single point]",
CC1C=CCC2C(=O)N(c3cccc(C(=O)Nc4ccc(Br)cc4)c3)C(=O)C12 (stereo not given),-27.7%,"29.1 µM [falling, single point]",
CCOc1cc(C)c(-c2onc(C(F)(F)F)c2-c2csc(C)n2)c(O)c1,-58.8%,"8.2 µM [falling, partial curve]","10.3 µM [falling, partial curve]"
Cc1ccc(NNC2CC(=O)N(c3cccc(Cl)c3)C2=O)cc1 (stereo not given),,"0.164 µM [falling, full curve, poor fit]",
COc1ccc(C(=O)NCCS(=O)(=O)NCCc2ccccc2)cc1,-19.5%,,"0.00651 µM [falling, full curve, poor fit]"
COc1cc(CNCc2ccc(C)cc2)cc(OC)c1OC,9.84%,"0.326 µM [rising, full curve, poor fit]",
CN(Cc1ccccc1)C(=O)CNC(=O)C12CC3CC(CC(C3)C1)C2,-33.7%,"0.651 µM [falling, full curve, poor fit]","0.146 µM [falling, full curve]"
CCCNC(=O)c1ccc(N2CCC3(CC2)CC(c2cccc(Br)c2)=NO3)c(NC(=O)c2ccccc2)c1,9.77%,,"0.103 µM [falling, full curve, poor fit]"

# Source: PubChem BioAssay AID2685 (National Center for Advancing Translational Sciences (NCATS), 2010)
